This note sets out measurements from article PMC10163288.

B1: il2ra_site1_2b5i_normal_mot_0e5a94e4a5addaac739760efb25f0f5d_0001_000000289_0001_18_32_H_._HHH_b1_01234_0001_0000100009_0000001_0 (protein)
chain: SSSDEAQEIARYLNQAVFELVFELGLSSEQAKELVRLAWRLAVRGISEEEAEEILRELAEKLSSS
B2: il2ra_site1_3nfp_sap_17_mot_3cfacc6722bd33c9c25ec9075f684c77_0001_af2_000000257_0001_17_31_H_._HHH_b1_05697_0001_0000500010_0000001_0_0001_af2pred_0001_af2pred_ … (protein)
chain: NLVERVIRDLRRLGDPKAEELAEILEELLRRGVPPREVLEIAARVAEELGDPDMARDLERFAKKA
B3: il2ra_site1_1z92_sap_10_mot_c66c727fe7b11027095aa3ef302aaf37_0001_000000167_0001_38_52_H_._d63e40f36b59ff69b19faeb80cde508e_0001_af2_0001_0000200015_0000001_0_0 … (protein)
chain: SVEERLEEAVERNDPELVKEILREALEELGANPEEVENLLRFAHKTAGGDPELLVRLVLKFLSFD
B4: il2ra_site1_1z92_sap_15_mot_HHH_b1_03002_af2_000000136_0001_43_56_H_._0e653a373a1291f8f2a22526f8bd3403_0001_0001_0000100004_0000001_0_0001 (protein)
chain: SSSSSRSEERVEFVIRNIEMLLERGNDRSARWALELAKLLAERNGNPELQKRLEELEEELKSSSS
B5: il2ra_site1_2b5i_normal_mot_22370d59370c406a0c205a431f537cfa_0001_af2_000000141_0001_1_31_H_._HHH_b2_04268_af2_0001_0000200006_0000001_0_af2pred_dldesign_0_af2p … (protein)
chain: SSSSSKEEELEVADVIEELVEKKGLSDDDYAKLSRLAVDLLYKGVSVEEIKERLKKLAEELSSSS
B6: il2ra_site1_2b5i_normal_mot_HHH_b2_04910_000000118_0001_1_19_H_._HHH_b2_07787_af2_0001_0000500010_0000001_0_af2pred_dldesign_0_af2pred (protein)
chain: SSSSRELAERARELFLEANRLKQAGKEEEAKKLLEEALELAREAGCATLARLIELALKQIGSSSS
B7: il2ra_site1_3nfp_normal_mot_HHH_b2_05589_af2_000000178_0001_1_18_H_._HHH_b1_04813_af2_0001_0000400019_0000001_0_af2pred_0001_af2pred (protein)
chain: SSSSDDELRRLNKLEKQVEELAREGDDEEARKILEEAIELAEELGDELALKFLEFLESRLSSSSS
B8: il2ra_site1_3nfp_sap_16_mot_HHH_b2_04910_af2_000000236_0001_1_18_H_._HHH_b1_03309_0001_0000300020_0000001_0_0001_af2pred_0001_af2pred_swapped (protein)
chain: SSSSSEESKRVQELFRLAAEALKRGDEEEFERILEELREIAEKRNSPALRRMVEALEKDVSSSSS
B9: il2ra_site1_1z92_normal_mot_0152819cca26c81f8eead0111e16a660_0001_000000247_0001_36_50_H_._HHH_b2_05663_0002_0000400044_0000001_0 (protein)
chain: SSSSSSELAAELAVRIVVEAAGLSPEDEERLEELVKELLEEGVDVEEIIKILDELARRLDSSSSS
B10: il2ra_site2_2erj_sap_17_mot_HHH_b2_05866_000000027_0001_43_57_H_._HHH_b1_01196_af2_0001_0000100002_0000001_0_0001 (protein)
chain: SSSSDEDKRRAEEIFEELEELLKRNDLHEFYRLLVELTHLASKVGDPEILKLLREILELAGSSSS
B11: il2ra_site1_3nfp_sap_19_mot_HHH_b1_01683_000000180_0001_19_35_H_._HHH_b1_01165_af2_0001_0000300010_0000001_0_0001 (protein)
chain: SSSSDVHELLERALELAWEGNPEEARELVEEALELAKELGDESRERYAERALESIKRAHQSSSSS
B12: il2ra_site1_3nfp_normal_mot_HHH_b1_01159_af2_000000075_0001_1_20_H_._HHH_b2_02821_0001_0000900040_0000001_0_af2pred_0001_af2pred (protein)
chain: SSSSDEKEELERLIEEVAEAAKEGNEEELEELLREALKLAQENNDRAAERFLRAALKRVSSSSSS
B13: il2ra_site2_2erj_normal_mot_HHH_b1_04373_af2_000000118_0001_18_33_H_._HHH_b1_01717_0001_0000300026_0000001_0 (protein)
chain: SSSSSSVEERVRELLEEAERLYEEGNLEEVYRLAVEALRLASEHNNDELQQEIAEVVERLSSSSS
B14: il2ra_site1_2b5i_sap_19_mot_HHH_b1_07515_af2_000000276_0001_42_54_H_._HHH_b1_00847_af2_0001_0000700018_0000001_0_0001 (protein)
chain: SSSSDERTREAQRLFREADELDREGDPEEARRVLEQALEIAEEEGSRSLLIMIEWALRQFNSSSS
B15: il2ra_site1_2b5i_sap_8_mot_HHH_b2_01822_000000237_0001_40_54_H_._HHH_b1_03246_0002_0000400018_0000001_0_0001_af2pred_dldesign_0_af2pred (protein)
chain: SSSSSEKEDEIYDLFSEALRLKHQGKKEEAKKLLEEAAKLAKELGNKKLLAEVEYFLKKLSSSSS
B16: il2ra_site2_2erj_sap_22_mot_HHH_b2_08130_000000073_0001_1_17_H_._HHH_b1_02674_0001_0000300003_0000001_0_0001 (protein)
chain: SSSSDVEELLEEIEELLRRGDREEAERLLHEAAELAFERNDFELFTEVVEVAHEIDRLRVSSSSS
B17: il2ra_site2_3nfp_normal_mot_HHH_b1_00660_af2_000000090_0001_40_57_H_._HHH_b1_03317_0001_0000400024_0000001_0_af2pred_0001_af2pred (protein)
chain: SSSSSDEEVREEVEELLEEAKHIEDPEEREKVLRRAALLAYELGDFELFALVLLVIERLRSSSSS
B18: il2ra_site2_3nfp_normal_mot_HHH_b1_00660_af2_000000090_0001_40_57_H_._HHH_b2_02305_af2_0001_0000100001_0000001_0_af2pred_0001_af2pred (protein)
chain: SSSSSEIEEEVEELLEEAKKIDDEEERERVLLKAALIAVEANNYELFALVNRIMERLERNSSSSS
B19: il2ra_site1_3nfp_sap_13_mot_0eddeacbb14b769e73e254714f31e2f9_0001_af2_000000052_0001_37_51_H_._3685a7fc0315cffcf770f862f50b42b9_0001_1_0001_0000400028_0000001_0 … (protein)
chain: SDLEEEVRELIELIKEWAEERNDPTARLFAELLEESARRAEERNDERALRYVLRSARLALRTGSS

The other results are listed elsewhere or left out.

The experiment deals with il2ra, P01589. Briefly: yeast display titration.
As to B1, the “apparent Kd” value was “inactive: no binding seen”.

For the molecule B2, the “apparent Kd” value was “inactive: no binding seen”.

Turning to B3, the “apparent Kd” value was “inactive: no binding seen”.

In the case of B4, the “apparent Kd” value was “inactive: no binding seen”.

For the molecule B5, the “apparent Kd” value was “inactive: no binding seen”.

In the case of B6, the “apparent Kd” value was “inactive: no binding seen”.

For B7, the “apparent Kd” value is “inactive: no binding seen”.

On to B8, for which the “apparent Kd” value was “inactive: no binding seen”.

Consider B9, for which the “apparent Kd” value was “inactive: no binding seen”.

As for B10, the “apparent Kd” value is “inactive: no binding seen”.

For the molecule B11, the “apparent Kd” value was “inactive: no binding seen”.

For B12, the “apparent Kd” value is “inactive: no binding seen”.

In the case of B13, the “apparent Kd” value was “inactive: no binding seen”.

Take B14: the “apparent Kd” value was “inactive: no binding seen”.

B15: the “apparent Kd” value is “inactive: no binding seen”.

With B16, the “apparent Kd” value is “inactive: no binding seen”.

With B17, the “apparent Kd” value was “inactive: no binding seen”.

With B18, the “apparent Kd” value is “inactive: no binding seen”.

For the molecule B19, the “apparent Kd” value is “inactive: no binding seen”.
